At least one structure is not confirmed: it was looked up by name or label, or the drawing left a doubt. Peptide text beside a SMILES is read from it.
What was measured:
Format in all cases: cell-based, human
Erk1/2 [1] = assay: BK-stimulated Erk1/2 phosphorylation in skin fibroblasts (Western blot, normalized to total Erk1/2)
Description: Banked AC and AD fibroblasts were grown to 80-100% confluence before they were “starved” in a serum-free DMEM overnight. Cells were treated with 10 nM BK at 37° C. for different intervals to establish a time course for BK effects. The same volume of PBS was added to a control flask of cells of each line. The reaction was terminated by removing the medium, rapidly rinsing the cells with pre-cooled PBS, pH 7.4, and transferring the flask onto dry ice/ethanol.
(§1) For inhibition studies, cells were preincubated with the following concentration of inhibitor at 37° C. for the intervals indicated: 2ABP (50 μM for 30 min); PP1 (10 μM for 15 min); Ly294002 (5 μM for 15 min); and BiSM-1 (5 μM for 15 min). A parallel control flask was incubated with an identical volume of DMSO vehicle. At the end of this incubation, the same inhibitor at the indicated concentration was added and followed immediately by BK to a final concentration of 10 nM. BK (10 nM) was also added to DMSO controls. Basal controls were cells to which neither BK nor inhibitors were added. After a 5-min incubation at 37° C., the reaction was terminated as above.
Cell lysates were prepared from cells of the various groups. Flasks were moved from dry ice/ethanol to ice water. Each flask received 1 ml of lysis buffer (10 mM Tris pH 7.4, 150 mM NaCl, 1 mM EDTA, 1 mM EGTA, pH 8, 0.5% NP-40, 1% Triton X-100, 1% protease inhibitor cocktail (Sigma), 1% cocktail of serine/threonine (Ser/Thr) phosphatase inhibitor and tyrosine (Tyr) phosphatase inhibitor (Sigma). After rocking on an end-to-end shaker in a cold room for 30 min, cells were collected from each flask with a cell scraper.
Cells were sonicated, centrifuged at 5000 rpm for 5 mM, and a sample of the supernatant was subjected to Western blotting.
Cell lysates were boiled in an equal volume of 2× SDS-sample buffer for 10 min. Proteins from each sample were resolved on a 4-20% mini gradient gel and transferred onto a nitrocellulose membrane. Phosphorylated Erk1/2 was detected with anti-phospho-Erk1/2 antibody using the SuperSignal ECL detection kit. In order to normalize the amount of phosphorylated Erk1/2 against the total amount of Erk1/2, the same membrane blotted with the antibody was stripped with a stripping buffer (62.5 mM Tris-HCl pH 6.7, 2% SDS and 100 mM 2-mercaptoethanol) at 60° C. for 45 mM. After washing with 10 mM PBS pH 7.4 containing 0.01% Tween-20 (3× at 10 mM), the membrane was blotted with an anti-non-phospho-Erk1/2 antibody, which allowed calculation of the total amount of Erk1/2 loaded on the gel.
(§2) Signals from phosphorylated and nonphosphorylated Erk1/2 (or CREB) were scanned with a Fuji film LAS-1000 Plus scanner. The mean optical density of each protein band was measured using NIH Image software. Values from the phosph-Erk1/2 signals were normalized respectively against the total signal of Erk1/2. After normalization, data from treated cells was converted to a percentage of the basal control and subjected to statistical analyses.

CREB = assay: BK-stimulated CREB phosphorylation (Ser133) and total CREB in skin fibroblasts (Western blot); settings: for Effect on BK-stimulated CREB phosphorylation: preincubation 5 μM for 15 min, 10 nM BK 10 min
Description: FIGS. 5A, 5B1, 5B2, 5C1 and 5C2. Changes in phosphorylation of, and amounts of CREB after BK stimulation. AC and AD cells were treated with 10 nM BK for 5 or 10 min. Phosphorylated CREB (P-CREB) was measured using a anti-phospho-CREB-Serl33 antibody on Western blots. The mean densities of P-CREB were normalized against the total amount of CREB measured using an anti-“regular CREB” antibody and subjected to statistic analyses.
FIGS. 6A1, 6A2, 6B1, 6B2, 6C1 and 6C2. Effects of different inhibitors on BK-stimulated phosphorylation of CREB. AC and AD cells were preincubated at 37° C. for 15 min with 5 μM BiSM-1 (FIG. 6A), 10 μM PP1 (FIG. 6B), or 5 μM Ly294002 (FIG. 6C) before incubation with 10 nM BK for 10 min Nointalization was performed as with FIGS. 5A-5C and statistical significance of differences were evaluated by 2-way ANOVA. **p<0.0001; *p<0.05.
as §1
CREB was detected using analogous methods.
as §2

Erk1/2 [2] = assay: Immunocytochemical staining of activated Erk1/2 in fibroblasts; settings: 10 nM BK, 10 min
[3] = fibroblasts from control subjects (AC), 10 nM BK

Compound	BK-induced Erk1/2 phosphorylation in AD fibroblasts compared to age-matched controls (Erk1/2 [1]; 10 minutes after stimulation, fresh tissue samples and banked cell lines)	phosphorylation of Erk1/2, % of the control (Erk1/2 [1]; AC fibroblasts, 20 min post-BK treatment, 10 nM BK) [%]	phosphorylation levels of Erk1/2 in HD cells versus age-matched controls (Erk1/2 [1]; Huntington's dementia (HD) fibroblasts, 10 nM BK for 10 minutes)	BK-induced phosphorylation of Erk1/2 (time course) (Erk1/2 [1]; [3])	Peak phosphorylation of Erk1/2, time following stimulation (Erk1/2 [1]; [3])	Time after stimulation by which Erk1/2 phosphorylation returned to control levels (Erk1/2 [1]; [3]) [min]	BK-induced phosphorylation of Erk1/2 (time course) (Erk1/2 [1]; fibroblasts from subjects with AD, 10 nM BK)	Effect of BK on total amount of CREB protein (CREB; AC and AD cells, 10 nM BK, 10 min)	BK-induced phosphorylation of CREB (CREB; both AC and AD cells, 10 nM BK, 5 and 10 min)	phosphorylated Erk1/2 immunostaining, pre- versus after BK treatment (Erk1/2 [2]; AC cells)	phosphorylated Erk1/2 immunostaining after BK treatment (Erk1/2 [2]; AD cells)	Effect on BK-induced Erk1/2 phosphorylation (Erk1/2 [1]; AC cells, preincubation 5 μM for 15 min, 10 nM BK 5 min)	Effect on BK-stimulated CREB phosphorylation (CREB; AC cells)	Effect on BK-stimulated CREB phosphorylation (CREB; AD cells)
NC(N)=NCCC[C@H](NC(=O)[C@H](Cc1ccccc1)NC(=O)[C@@H]1CCCN1C(=O)[C@H](CO)NC(=O)[C@H](Cc1ccccc1)NC(=O)CNC(=O)[C@@H]1CCCN1C(=O)[C@@H]1CCCN1C(=O)[C@@H](N)CCCN=C(N)N)C(=O)O [BK, Bradykinin] (H-RPPGFSPFR-OH)	consistently elevated	68	not different from that of the age-matched controls	marked, but transient phosphorylation of Erk1/2	about 2.5 min	≤ 10	maintained for a markedly prolonged period	marked reduction	highly significant phosphorylation of CREB	no apparent difference	increased levels of phosphorylated Erk1/2			
O=c1cc(N2CCOCC2)oc2c(-c3ccccc3)cccc12 [LY294002]												modest, though significant, inhibition	partially inhibited	did not have any effect

— US9188595B2, “Alzheimer's disease diagnosis based on mitogen-activated protein kinase phosphorylation” (Blanchett Rockefeller Neurosciences Institute, priority 2001, dated 2015)
